In patent US11452717B2, “Small molecule activators of nicotinamide phosphoribosyltransferase (NAMPT) and uses thereof” (Sanford Burnham Prebys Medical Discovery Institute, priority 2017, dated 2022):
The structures given here were assigned with low confidence; some may be wrong.

Chains of the proteins cited; added tags and fusions are not shown.
UniProt P43490, whole entry: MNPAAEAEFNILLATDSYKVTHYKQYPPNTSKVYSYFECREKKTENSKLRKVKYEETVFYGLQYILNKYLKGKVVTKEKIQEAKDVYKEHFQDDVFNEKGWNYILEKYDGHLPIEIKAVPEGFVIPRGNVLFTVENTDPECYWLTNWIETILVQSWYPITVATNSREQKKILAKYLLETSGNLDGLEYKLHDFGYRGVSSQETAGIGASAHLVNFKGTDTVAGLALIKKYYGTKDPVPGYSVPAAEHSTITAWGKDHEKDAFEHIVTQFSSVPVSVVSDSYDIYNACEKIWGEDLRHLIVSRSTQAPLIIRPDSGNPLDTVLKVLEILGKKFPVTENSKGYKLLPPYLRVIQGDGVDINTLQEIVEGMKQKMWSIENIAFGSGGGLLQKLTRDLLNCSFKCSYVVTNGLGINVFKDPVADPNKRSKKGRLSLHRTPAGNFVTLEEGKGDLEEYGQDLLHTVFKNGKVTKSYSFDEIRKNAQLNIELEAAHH

Target: NAMPT enzyme (Homo sapiens (Human), UniProt P43490)
Experiment: Enzyme Assay and NMN Detection (NAMPT reaction, fluorescence detection of NMN)
Format: biochemical
Conditions: Table B-3; NAMPT activation, NMN formation

O=C(NCc1ccccc1)Nc1cccc(C(=O)O)c1
EC50: > 20 µM
